# From publication PMC10777489
# Results are given in words; binding and its absence hold for the method and conditions named. In cells and extracts the contact can be indirect. Some results given as binding are weak or reduced against the parent protein; the word gives no strength.
# T1: forkhead box protein P3 (mouse (endogenous in lung tissue)), Q99JB6
# T1 chain: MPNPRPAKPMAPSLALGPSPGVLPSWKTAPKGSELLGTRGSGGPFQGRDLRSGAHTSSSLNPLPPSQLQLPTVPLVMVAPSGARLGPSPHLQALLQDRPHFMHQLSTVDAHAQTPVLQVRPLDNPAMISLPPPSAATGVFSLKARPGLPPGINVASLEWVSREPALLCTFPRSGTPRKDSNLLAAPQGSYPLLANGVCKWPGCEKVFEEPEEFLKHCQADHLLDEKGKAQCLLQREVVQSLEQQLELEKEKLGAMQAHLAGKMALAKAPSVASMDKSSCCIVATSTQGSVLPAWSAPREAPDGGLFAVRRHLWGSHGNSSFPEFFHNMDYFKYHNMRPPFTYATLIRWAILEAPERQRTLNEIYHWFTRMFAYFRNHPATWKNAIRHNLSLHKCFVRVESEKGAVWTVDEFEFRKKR
# B1: interferon regulatory factor 4, Q64287-1 1-450 (protein)
# chain: MNLETGSRGSEFGMSAVSCGNGKLRQWLIDQIDSGKYPGLVWENEEKSVFRIPWKHAGKQDYNREEDAALFKAWALFKGKFREGIDKPDPPTWKTRLRCALNKSNDFEELVERSQLDISDPYKVYRIVPEGAKKGAKQLTLDDTQMAMGHPYPMTAPYGSLPAQQVHNYMMPPHDRSWRDYAPDQSHPEIPYQCPVTFGPRGHHWQGPSCENGCQVTGTFYACAPPESQAPGIPIEPSIRSAEALALSDCRLHICLYYRDILVKELTTTSPEGCRISHGHTYDVSNLDQVLFPYPDDNGQRKNIEKLLSHLERGLVLWMAPDGLYAKRLCQSRIYWDGPLALCSDRPNKLERDQTCKLFDTQQFLSELQVFAHHGRPAPRFQVTLCFGEEFPDPQRQRKLITAHVEPLLARQLYYFAQQNTGHFLRGYELPEHVTTPDYHRSLRHSSIQE
# Biological target: T1, forkhead box protein P3 (mouse …)
# Experiment: co-IP; FOXP3 antibody (mouse IgG as control) on Protein A/G magnetic beads; lysate of mouse lung lobe tissue (hyperoxia for 14 d) in Non-Denaturing Lysis Buffer, incubated overnight at 4 °C; Western blotting
# Conditions: remark: other sources report otherwise
binder,measurement,value
B1,binding,binds
